PubChem BioAssay AID1508597 – Cure First | 2020
Shown is a random part of the about 2,100 reagents, under one of the conditions tested. 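Calls flag viability under 80% in either arm, not effects specific to rucaparib; the reference for percent is not stated.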 Some reagents were tested in more than one well and are listed for each. Reagent sequences are not shown. Not stated in the record: the 100% reference.

Purpose: 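Knock-downs altering ovarian cancer cell survival with or without PARP inhibitor rucaparib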 (primary screen)
Cell system: human ovarian carcinoma lines grown from tumours: OCI-P5x (papillary serous) and OCI-C5x (clear cell)
Reagents: siRNA pool against human genes, 1.25 pmol siRNA per well
Timing: 72 h or 96 h, depending on the cell culture
Challenge: rucaparib 20 µM (about IC30) or vehicle, present until read-out
Rucaparib or vehicle: Vehicle
Cell line: OCI-C5x (clear cell)
Measurement: 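Luminescent ATP-based viability assay read 72 or 96 h after transfection, depending on culture, given as normalised percent viability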
Reading the numbers: viability, normalised: higher = more viable cells remaining
Hit rule: 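a well counts as a hit if its normalised viability is under 80 percent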
Meaning of the calls: active = viability under 80%; inactive = viability 80% or more

APPL2, technical replicate 1 showed viability, normalised (%) = 58.4; active.
For APPL2, technical replicate 2 the deposit lists viability, normalised (%) = 74.3; active.
With APPL2, technical replicate 3 the deposit lists viability, normalised (%) = 58; active.
PDE12, technical replicate 1 gave viability, normalised (%) = 48.9; active.
With PDE12, technical replicate 2, the values are viability, normalised (%) = 46.2; active.
For PDE12, technical replicate 3, the entry reads viability, normalised (%) = 43.7; active.
PRKDC, technical replicate 1 gave viability, normalised (%) = 65; active.
For PRKDC, technical replicate 1, the entry reads viability, normalised (%) = 73.7; active.
PRKDC, technical replicate 2 scored viability, normalised (%) = 62.4; active.
With PRKDC, technical replicate 2 the deposit lists viability, normalised (%) = 50.3; active.
For PRKDC, technical replicate 3 the deposit lists viability, normalised (%) = 60.9; active.
For PRKDC, technical replicate 3, the values are viability, normalised (%) = 44.1; active.

Already shown: an excerpt of the list.
PRKDC, technical replicate 1 → viability, normalised (%): 65; activity call: active
PRKDC, technical replicate 1 → viability, normalised (%): 73.7; activity call: active

The listing continues:
For TWF2, technical replicate 1, the values are viability, normalised (%) = 55.6; active.
For TWF2, technical replicate 2, the values are viability, normalised (%) = 31.8; active.
TWF2, technical replicate 3 gave viability, normalised (%) = 50.4; active.
MAD2L2, technical replicate 1 scored viability, normalised (%) = 50.7; active.
For MAD2L2, technical replicate 2 the deposit lists viability, normalised (%) = 60.3; active.
MAD2L2, technical replicate 3 gave viability, normalised (%) = 42.8; active.
For MLKL, technical replicate 1, the values are viability, normalised (%) = 60.9; active.
MLKL, technical replicate 2 scored viability, normalised (%) = 78.3; active.
With MLKL, technical replicate 3, the entry reads viability, normalised (%) = 72.8; active.
